Data: US10363227B2, “Pharmaceutical formulation for use in the treatment and/or prevention of restenosis” (Centre Hospitalier Universitaire Vaudois (C.H.U.V.), priority 2013, dated 2019)

Test system: hVSMCs
Test: hVSMC transmigration, modified Boyden chamber
Format: cell-based, human
Details: versus control cells without ATV
Description: FIG. 5: The hydrogel incorporating ATV decreases transmigration. Upper panel: Transmigration of hVSMCs in presence or absence of ATV was assessed with the modified Boyden chamber technique. […] Bar represents 20 μm.
ATV incorporated in the hydrogels were assayed on primary human vascular smooth muscle cells (hVSMC) to test cell viability and accordingly whether ATV is released from the hydrogels in its active form. To that end, experiments on the influence of the drug on migration and transmigration of the hVSMC and the expression of different mRNAs of proteins involved in the cellular invasivity were performed.

Compound: CC(C)c1c(C(=O)Nc2ccccc2)c(-c2ccccc2)c(-c2ccc(F)cc2)n1CC[C@@H](O)C[C@@H](O)CC(=O)O [ATV, Atorvastatin]
- capacity of hVSMCs to transmigrate: significant decrease
